Results deposited as PubChem BioAssay AID1259405 (NCATS, 2018)
Test: 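Silenced genes that increase secreted GFP made by CHO cells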 (primary screen). Cell system: Chinese hamster CHO-K1 ovary cells with stable secreted eGFP expression. Reagent: single siRNA against mouse genes, 0.8 pmol siRNA per well (2 µl of 400 nM stock). Duration: 3 days. Read-out: 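Percent of the per-plate non-targeting control median for intracellular GFP per well by laser scanning cytometry and for cell viability by ATP luminescence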. Reading the numbers: GFP, % of control: higher = more GFP per well, higher productivity; viability (ATP), % of control: higher = more viable cells (more ATP). Rule for the call: 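a knock-down is called active if GFP reaches 120% or more of non-targeting control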.
Shown is one part, drawn at random, of about 50,000 deposited reagents. About 4,000 of them (8%) count as active. 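Mouse siRNA library applied to hamster cells; one well for each siRNA.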 Reagents against one gene are numbered here.

With knock-down of Spata7 (spermatogenesis associated 7) #1 the results were GFP, % of control 94.8; viability (ATP), % of control 75.3; inactive.
Spata7 (spermatogenesis associated 7) #2 gave GFP, % of control 102; viability (ATP), % of control 115; inactive.
Spata7 (spermatogenesis associated 7) #3 scored GFP, % of control 159; viability (ATP), % of control 108; active.
Fam234b (family with sequence similarity 234, member B) #1 showed GFP, % of control 50; viability (ATP), % of control 54.1; inactive.
Fam234b (family with sequence similarity 234, member B) #2 gave GFP, % of control 76.2; viability (ATP), % of control 77.6; inactive.
After knock-down of Fam234b (family with sequence similarity 234, member B) #3, the record shows GFP, % of control 90.8; viability (ATP), % of control 75.3; inactive.
Against Gpc1 (glypican 1) #1 the deposit lists GFP, % of control 148; viability (ATP), % of control 85; active.
Gpc1 (glypican 1) #2 gave GFP, % of control 73.3; viability (ATP), % of control 70.1; inactive.
With knock-down of Gpc1 (glypican 1) #3, the record shows GFP, % of control 88.8; viability (ATP), % of control 86.5; inactive.

2 entries from above, ordered by “viability (ATP), % of control”, descending:
Spata7 (spermatogenesis associated 7) #3: GFP, % of control = 159; viability (ATP), % of control = 108; Outcome = active
Fam234b (family with sequence similarity 234, member B) #1: GFP, % of control = 50; viability (ATP), % of control = 54.1; Outcome = inactive

Additional results:
Depletion of Fxyd3 (FXYD domain-containing ion transport regulator 3) #1 came out at: GFP, % of control 246; viability (ATP), % of control 97.5; active.
Knock-down of Fxyd3 (FXYD domain-containing ion transport regulator 3) #2 came out at: GFP, % of control 55.2; viability (ATP), % of control 37.2; inactive.
Against Fxyd3 (FXYD domain-containing ion transport regulator 3) #3, the entry reads GFP, % of control 92.8; viability (ATP), % of control 86.5; inactive.
Rad54b (RAD54 homolog B (S. cerevisiae)) #1 showed GFP, % of control 62.1; viability (ATP), % of control 81.2; inactive.
Against Rad54b (RAD54 homolog B (S. cerevisiae)) #2 the deposit lists GFP, % of control 171; viability (ATP), % of control 76.6; active.
With knock-down of Rad54b (RAD54 homolog B (S. cerevisiae)) #3, the screen gave GFP, % of control 121; viability (ATP), % of control 78.3; active.
For Rad54b (RAD54 homolog B (S. cerevisiae)) #4, the values are GFP, % of control 94.2; viability (ATP), % of control 70.6; inactive.
Against Rad54b (RAD54 homolog B (S. cerevisiae)) #5, the values are GFP, % of control 69.3; viability (ATP), % of control 74.5; inactive.
Silencing of Rad54b (RAD54 homolog B (S. cerevisiae)) #6 gave: GFP, % of control 172; viability (ATP), % of control 96.1; active.
For Tbc1d22a (TBC1 domain family, member 22a) #1, the values are GFP, % of control 98.4; viability (ATP), % of control 106; inactive.
For Tbc1d22a (TBC1 domain family, member 22a) #2 the deposit lists GFP, % of control 72.7; viability (ATP), % of control 82.6; inactive.
Tbc1d22a (TBC1 domain family, member 22a) #3 scored GFP, % of control 70.7; viability (ATP), % of control 53.4; inactive.
AI467606 (expressed sequence AI467606) #1 showed GFP, % of control 76.4; viability (ATP), % of control 76.5; inactive.
After knock-down of AI467606 (expressed sequence AI467606) #2, the screen gave GFP, % of control 98.1; viability (ATP), % of control 77.3; inactive.
Silencing of AI467606 (expressed sequence AI467606) #3 gave: GFP, % of control 92.3; viability (ATP), % of control 86.2; inactive.
With knock-down of Fanca (Fanconi anemia, complementation group A) #1 the results were GFP, % of control 32.9; viability (ATP), % of control 101; inactive.
Fanca (Fanconi anemia, complementation group A) #2 gave GFP, % of control 125; viability (ATP), % of control 84; active.
Speer2 (spermatogenesis associated glutamate (E)-rich protein 2) #1 showed GFP, % of control 99.3; viability (ATP), % of control 75.7; inactive.
Speer2 (spermatogenesis associated glutamate (E)-rich protein 2) #2 scored GFP, % of control 125; viability (ATP), % of control 120; active.
For Speer2 (spermatogenesis associated glutamate (E)-rich protein 2) #3 the deposit lists GFP, % of control 113; viability (ATP), % of control 113; inactive.
